Laboratory results from doi:10.1101/2021.02.26.432832.
These are yes or no findings as the source states them, for the method shown. Some results given as binding are weak or reduced against the parent protein; the word gives no strength. Where a sequence is shown, tags or fusion partners need not be part of it.

Tests used:
Assay in all cases: tandem affinity purification
[1] = biological target: T1, TAP-tagged Ioc4 aromatic cage mutant [change], in yeast (S. cerevisiae) (UniProt Q04213)
T1 sequence: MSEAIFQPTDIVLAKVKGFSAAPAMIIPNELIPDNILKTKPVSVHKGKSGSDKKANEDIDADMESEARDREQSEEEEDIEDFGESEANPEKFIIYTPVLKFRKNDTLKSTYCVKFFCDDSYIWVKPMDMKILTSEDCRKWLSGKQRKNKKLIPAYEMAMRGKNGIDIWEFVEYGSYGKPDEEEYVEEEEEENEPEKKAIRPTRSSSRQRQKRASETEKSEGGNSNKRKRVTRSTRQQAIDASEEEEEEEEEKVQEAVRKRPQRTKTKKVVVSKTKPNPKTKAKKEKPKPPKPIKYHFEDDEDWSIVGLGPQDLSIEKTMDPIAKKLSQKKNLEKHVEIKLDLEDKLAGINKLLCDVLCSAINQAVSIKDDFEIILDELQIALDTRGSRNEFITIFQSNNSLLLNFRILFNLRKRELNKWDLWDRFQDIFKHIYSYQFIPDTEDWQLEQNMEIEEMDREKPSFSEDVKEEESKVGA

[2] = biological target: T2, TAP-tagged Ioc4 DNA-binding mutant [change] [change], in yeast (S. cerevisiae) (UniProt Q04213)
T2 sequence: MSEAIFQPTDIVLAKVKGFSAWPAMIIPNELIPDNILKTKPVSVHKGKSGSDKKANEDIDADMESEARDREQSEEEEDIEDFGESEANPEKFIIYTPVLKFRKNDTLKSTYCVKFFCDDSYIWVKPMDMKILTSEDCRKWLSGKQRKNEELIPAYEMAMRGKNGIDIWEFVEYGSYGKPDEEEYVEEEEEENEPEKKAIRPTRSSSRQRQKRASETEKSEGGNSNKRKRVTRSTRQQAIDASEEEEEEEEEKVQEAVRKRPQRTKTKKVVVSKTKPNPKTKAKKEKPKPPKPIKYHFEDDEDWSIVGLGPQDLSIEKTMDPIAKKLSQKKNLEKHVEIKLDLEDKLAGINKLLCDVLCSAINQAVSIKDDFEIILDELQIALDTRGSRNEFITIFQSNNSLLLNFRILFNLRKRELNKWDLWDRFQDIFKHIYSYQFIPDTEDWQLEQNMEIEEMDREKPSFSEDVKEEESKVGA

[3] = biological target: T3, TAP-tagged Ioc4 with its PWWP domain deleted, in yeast (S. cerevisiae) (UniProt Q04213)
T3 sequence: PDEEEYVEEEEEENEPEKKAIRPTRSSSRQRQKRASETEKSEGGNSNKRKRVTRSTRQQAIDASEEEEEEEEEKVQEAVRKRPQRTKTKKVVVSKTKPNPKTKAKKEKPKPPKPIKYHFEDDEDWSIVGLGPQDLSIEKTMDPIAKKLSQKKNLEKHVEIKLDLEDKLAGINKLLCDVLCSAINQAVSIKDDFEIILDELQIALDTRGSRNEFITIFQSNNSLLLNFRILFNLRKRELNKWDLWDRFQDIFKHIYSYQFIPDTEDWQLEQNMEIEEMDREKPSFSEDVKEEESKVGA

[4] = biological target: T4, TAP-tagged Ioc4 with the insertion motif deleted, in yeast (S. cerevisiae) (UniProt Q04213)
T4 sequence: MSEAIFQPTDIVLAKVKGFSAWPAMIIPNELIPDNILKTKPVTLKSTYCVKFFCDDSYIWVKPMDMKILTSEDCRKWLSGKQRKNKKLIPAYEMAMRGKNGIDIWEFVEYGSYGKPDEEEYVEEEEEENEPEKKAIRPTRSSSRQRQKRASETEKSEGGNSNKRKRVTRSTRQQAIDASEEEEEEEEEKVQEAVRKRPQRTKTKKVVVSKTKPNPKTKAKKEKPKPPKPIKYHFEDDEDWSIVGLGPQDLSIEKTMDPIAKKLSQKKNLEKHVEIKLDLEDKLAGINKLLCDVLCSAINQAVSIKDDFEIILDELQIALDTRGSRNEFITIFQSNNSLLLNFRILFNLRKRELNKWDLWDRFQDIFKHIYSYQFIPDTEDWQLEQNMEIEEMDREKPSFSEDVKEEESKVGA

[5] = biological target: T5, TAP-tagged wildtype Ioc4 in yeast (S. cerevisiae) (UniProt Q04213)
T5 sequence: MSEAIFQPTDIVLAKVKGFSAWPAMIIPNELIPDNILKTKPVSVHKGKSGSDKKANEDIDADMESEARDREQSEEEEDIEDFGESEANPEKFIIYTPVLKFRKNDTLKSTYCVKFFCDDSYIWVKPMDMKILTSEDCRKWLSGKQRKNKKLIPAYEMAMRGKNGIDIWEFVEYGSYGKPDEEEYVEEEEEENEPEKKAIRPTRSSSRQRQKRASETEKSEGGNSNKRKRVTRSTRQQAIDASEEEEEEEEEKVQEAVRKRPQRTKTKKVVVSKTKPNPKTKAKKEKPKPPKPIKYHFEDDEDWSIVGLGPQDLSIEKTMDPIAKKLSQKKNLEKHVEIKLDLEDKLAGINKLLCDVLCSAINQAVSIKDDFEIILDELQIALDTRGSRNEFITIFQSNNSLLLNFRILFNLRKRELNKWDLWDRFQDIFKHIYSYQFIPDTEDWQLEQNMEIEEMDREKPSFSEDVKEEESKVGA

Measured: binding

B1: Ioc2 (protein, UniProt Q12072 1-812)
chain: MRTKRTRGTRNVGASMPAGAANADSEDWKEYVSEDIIAQLNKHQLPYSEILDEKIADLANHWHFQYVMAWLSNVCESYTTTTFNTDQYGGSSTKCLWKNIKFDEGVFVTDVFSKIDGKDSNYYNDEVDVDEGSQNLYDRIRLQLLHQLAGNKSGQLKDWNVIVNHHLQNSSAYSDLVTDLPFLELEIARQFDIIYSIIKLIEMKNMIFKNYLANNLHLFTFSEVILDDDNSGGEEMKSLFALPNVGVLVKKTIHRVKEGSSSQVSQTLNIPIKLQNCTIKESDPDIPDSVELIHLEYSHDIDAYLQSITIDYDVITTNWGSMLEYWSENKSSKAIDEFITNLIPVYAEHRLYSAKLLANREKERAIAELMTRRKRSSRLVAKEEENKKKDLESEWFEKLDEREQFIRHRNKLVSKEIKKIKDLLWNQLWQLYDQDYRDEKLTRRNELKDRSGSGTPFFETSLGREEDNPLNEIDIGVLDHGPNFQSSIIPVEPPIPGTVGPLQTGDVPELPSDFCITKEELDELANYGIFTPQQEPDNQDSVFQCPGEPELAPMIITEDTETDLFNNRPLICCDHCYRWQHWECQPPKIIELISSTTKSPQHTLSQRDFGVIIMGNSHGNRRSSRRPQSTLEPSTKSSRPTDKRKPLSECSTFICAWCIRDLELELRNIFVPELKIIRAKQRKQQEDRERRKKMKEEKKRLEELAKKRELTESVSPPVFNNAFANMSSSTTPSIAAYEKTNPAINPAPNVNAAHPIITYSQQTGSKTVPQAPQAPQTSQASIQPQQQQQQQQQQQPLHPKEQNFHFQFPPTN
binds: all assays above
